{"source": "patent US11672774B2", "about": "“Methods of treating squamous cell carcinomas with farnesyltransferase inhibitors” (Kura Oncology, Inc., priority 2019, dated 2023)", "assay_type_in_all_cases": "in vivo, BALB/c nude or Nu/nu mice", "key": {"HNSCC PDX Model HN3067": {"system": "HNSCC PDX Model HN3067", "assay": "tumor growth in HNSCC PDX model HN3067", "settings": "PDX HN3067, H-Ras 2.7x median, H/K+N 2.8; tipifarnib 80 mg/kg PO BID, cisplatin 3 mg/kg IP QW, palbociclib 35 mg/kg PO QD, cetuximab 1 mg/mouse IP QW; vs vehicle", "description": "(§1) Female BALB/c nude or Nu/nu mice (6-8 weeks) were inoculated subcutaneously on the right flank with primary human tumor model fragment (2-3 mm in diameter) for tumor development. When average tumor size reaches about 250-350 mm^3, mice were randomly grouped into dosing groups. Animals were dosed with tipifarnib vehicle (20% w/v Hydroxypropyl-β-cyclodextrin) or tipifarnib at a dose of 80 mg/kg BID PO for 3-4 weeks and tumor dimensions were measured twice per week.\n(§2) After tumor development, mice were administered either vehicle, tipifarnib (80 mg/kg PO BID), a second active agent, or a combination of tipifarnib and a second active agent.\n(§3) After tumor development, mice were administered either vehicle, tipifarnib (at a reduced dosing of 60 mg/kg PO BID), a second active agent, or a combination of tipifarnib and a second active agent. The second agent was PI3K-α inhibitor BYL719 (50 mg/kg PO QD)."}, "HNSCC PDX Model HN2594": {"system": "HNSCC PDX Model HN2594", "assay": "tumor growth in HNSCC PDX model HN2594", "settings": "PDX HN2594, wild type H-Ras, H-Ras 2.8x median, H/K+N 3.6; tipifarnib 80 mg/kg PO BID, cisplatin 3 mg/kg IP QW, palbociclib 35 mg/kg PO QD, cetuximab 1 mg/mouse IP QW; vs vehicle", "description": "as §1\n(§4) The ability of tipifarnib to inhibit tumor growth was determined using selected patient-derived xenograft (PDX) models of HNSCC. The selected models expressed different levels of H-Ras or had different high ratios of H-Ras expression to the combined expression of K-Ras and N-Ras (“H/K+N ratio”). The expression levels of H-Ras, K-Ras and N-Ras in these PDX models were determined by RNAseq.\n(§5) After tumor development, mice were administered either vehicle, tipifarnib, a second active agent, or a combination of tipifarnib and a second active agent.\nas §2\n(§6) After tumor development, mice were administered either vehicle, tipifarnib (at a reduced dosing of 60 mg/kg PO BID), a second active agent, or a combination of tipifarnib and a second active agent."}, "HNSCC PDX Model HN2576": {"system": "HNSCC PDX Model HN2576", "assay": "tumor growth in HNSCC PDX model HN2576", "settings": "PDX HN2576, wild type H-Ras, H-Ras 3.0x median, H/K+N 4.6; tipifarnib 80 mg/kg PO BID, cisplatin 3 mg/kg IP QW, palbociclib 35 mg/kg PO QD, cetuximab 1 mg/mouse IP QW; vs vehicle", "description": "as §1, §4, §2, §6"}, "HNSCC PDX Model HN3411": {"system": "HNSCC PDX Model HN3411", "assay": "tumor growth in HNSCC PDX model HN3411", "settings": "PDX HN3411, H-Ras 4.1x median, H/K+N 2.7; Example III: tipifarnib, cetuximab, cisplatin or palbociclib alone or combined; vs vehicle", "description": "as §1, §5, §3"}, "HNSCC PDX Model HN3679": {"system": "HNSCC PDX Model HN3679", "assay": "tumor growth in HNSCC PDX model HN3679", "settings": "PDX HN3679, H-Ras 2.6x median, H/K+N 3.6; tipifarnib 80 mg/kg PO BID, palbociclib 35 mg/kg PO QD, cetuximab 1 mg/mouse IP QW; vs vehicle"}}, "note": "Entries after “also recorded” stand apart in the source; their conditions may differ. For at least one compound, name, drawing or mass did not settle the structure."}
{"smiles": "CC(=O)c1c(C)c2cnc(Nc3ccc(N4CCNCC4)cn3)nc2n(C2CCCC2)c1=O", "note": "[palbociclib]", "values": [{"measurement": "tumor growth", "setting": "HNSCC PDX Model HN3067", "value": "moderate activity"}, {"measurement": "tumor growth", "setting": "HNSCC PDX Model HN2594", "value": "partial response (inhibited tumor growth); also recorded: had activity"}, {"measurement": "tumor growth", "setting": "HNSCC PDX Model HN2576", "value": "had activity"}, {"measurement": "tumor growth", "setting": "HNSCC PDX Model HN3411", "value": "neither cisplatin (FIG. 3B) nor palbociclib (FIG. 3C) had any activity"}, {"measurement": "tumor growth", "setting": "HNSCC PDX Model HN3679", "value": "had activity"}]}
